The source gives many values for each of these; only a part stands here.
Test system: E. coli AG100tet
Assay: EtBr accumulation by real-time fluorometry

CC[n+]1c(-c2ccccc2)c2cc(N)ccc2c2ccc(N)cc21 [EtBr, ethidium bromide]
EtBr fluorescence (EtBr 0.125 µg/ml, cycle 1): 1.579 | EtBr fluorescence (EtBr 0.125 µg/ml, cycle 2): 1.596 | EtBr fluorescence (EtBr 0.125 µg/ml, cycle 3): 1.591 | EtBr fluorescence (EtBr 0.125 µg/ml, cycle 4): 1.572 | EtBr fluorescence (EtBr 0.125 µg/ml, cycle 5): 1.6059 | EtBr fluorescence (EtBr 0.125 µg/ml, cycle 6): 1.601 | EtBr fluorescence (EtBr 0.125 µg/ml, cycle 7): 1.639 | EtBr fluorescence (EtBr 0.125 µg/ml, cycle 8): 1.616 | EtBr fluorescence (EtBr 0.125 µg/ml, cycle 9): 1.628 | EtBr fluorescence (EtBr 0.125 µg/ml, cycle 10): 1.597 | EtBr fluorescence (EtBr 0.125 µg/ml, cycle 11): 1.6576 | EtBr fluorescence (EtBr 0.125 µg/ml, cycle 12): 1.607 | EtBr fluorescence (EtBr 0.125 µg/ml, cycle 13): 1.624 | EtBr fluorescence (EtBr 0.125 µg/ml, cycle 14): 1.6022 | EtBr fluorescence (EtBr 0.125 µg/ml, cycle 15): 1.628 | EtBr fluorescence (EtBr 0.125 µg/ml, cycle 16): 1.633 | EtBr fluorescence (EtBr 0.125 µg/ml, cycle 17): 1.6247 | EtBr fluorescence (EtBr 0.125 µg/ml, cycle 18): 1.645 | EtBr fluorescence (EtBr 0.125 µg/ml, cycle 19): 1.649 | EtBr fluorescence (EtBr 0.125 µg/ml, cycle 20): 1.6211 | EtBr fluorescence (EtBr 0.125 µg/ml, cycle 21): 1.625 | EtBr fluorescence (EtBr 0.125 µg/ml, cycle 22): 1.63 | EtBr fluorescence (EtBr 0.125 µg/ml, cycle 23): 1.629 | EtBr fluorescence (EtBr 0.125 µg/ml, cycle 24): 1.622 | EtBr fluorescence (EtBr 0.125 µg/ml, cycle 25): 1.646 | EtBr fluorescence (EtBr 0.125 µg/ml, cycle 26): 1.698 | EtBr fluorescence (EtBr 0.125 µg/ml, cycle 27): 1.62 | EtBr fluorescence (EtBr 0.125 µg/ml, cycle 28): 1.632 | EtBr fluorescence (EtBr 0.125 µg/ml, cycle 29): 1.639 | EtBr fluorescence (EtBr 0.125 µg/ml, cycle 30): 1.657 | EtBr fluorescence (EtBr 0.5 µg/ml, cycle 1): 2.507 | EtBr fluorescence (EtBr 0.5 µg/ml, cycle 2): 2.634 | EtBr fluorescence (EtBr 0.5 µg/ml, cycle 3): 2.599 | EtBr fluorescence (EtBr 0.5 µg/ml, cycle 6): 2.742 | EtBr fluorescence (EtBr 0.5 µg/ml, cycle 7): 2.721 | EtBr fluorescence (EtBr 0.5 µg/ml, cycle 8): 2.856 | EtBr fluorescence (EtBr 0.5 µg/ml, cycle 9): 2.747 | EtBr fluorescence (EtBr 0.5 µg/ml, cycle 10): 2.808 | EtBr fluorescence (EtBr 0.5 µg/ml, cycle 11): 2.828 | EtBr fluorescence (EtBr 0.5 µg/ml, cycle 12): 2.854 | EtBr fluorescence (EtBr 0.5 µg/ml, cycle 13): 2.8218 | EtBr fluorescence (EtBr 0.5 µg/ml, cycle 14): 2.805 | EtBr fluorescence (EtBr 0.5 µg/ml, cycle 15): 2.868 | EtBr fluorescence (EtBr 0.5 µg/ml, cycle 16): 2.841 | EtBr fluorescence (EtBr 0.5 µg/ml, cycle 17): 2.779 | EtBr fluorescence (EtBr 0.5 µg/ml, cycle 18): 2.896 | EtBr fluorescence (EtBr 0.5 µg/ml, cycle 19): 2.838 | EtBr fluorescence (EtBr 0.5 µg/ml, cycle 20): 2.938 | EtBr fluorescence (EtBr 0.5 µg/ml, cycle 21): 2.9 | EtBr fluorescence (EtBr 0.5 µg/ml, cycle 22): 2.884 | EtBr fluorescence (EtBr 0.5 µg/ml, cycle 23): 2.888 | EtBr fluorescence (EtBr 0.5 µg/ml, cycle 24): 2.89 | EtBr fluorescence (EtBr 0.5 µg/ml, cycle 25): 2.934 | EtBr fluorescence (EtBr 0.5 µg/ml, cycle 26): 2.927 | EtBr fluorescence (EtBr 0.5 µg/ml, cycle 27): 2.878 | EtBr fluorescence (EtBr 0.5 µg/ml, cycle 28): 2.899 | EtBr fluorescence (EtBr 0.5 µg/ml, cycle 29): 2.928 | EtBr fluorescence (EtBr 0.5 µg/ml, cycle 30): 2.936 | EtBr fluorescence (EtBr 1 µg/ml, cycle 1): 4.259 | EtBr fluorescence (EtBr 1 µg/ml, cycle 2): 4.357 | EtBr fluorescence (EtBr 1 µg/ml, cycle 3): 4.431 | EtBr fluorescence (EtBr 1 µg/ml, cycle 4): 4.51 | EtBr fluorescence (EtBr 1 µg/ml, cycle 5): 4.624 | EtBr fluorescence (EtBr 1 µg/ml, cycle 6): 4.527 | EtBr fluorescence (EtBr 1 µg/ml, cycle 7): 4.696 | EtBr fluorescence (EtBr 1 µg/ml, cycle 8): 4.608 | EtBr fluorescence (EtBr 1 µg/ml, cycle 9): 4.652 | EtBr fluorescence (EtBr 1 µg/ml, cycle 10): 4.634 | EtBr fluorescence (EtBr 1 µg/ml, cycle 11): 4.797 | EtBr fluorescence (EtBr 1 µg/ml, cycle 12): 4.757 | EtBr fluorescence (EtBr 1 µg/ml, cycle 13): 4.803 | EtBr fluorescence (EtBr 1 µg/ml, cycle 14): 4.744 | EtBr fluorescence (EtBr 1 µg/ml, cycle 15): 4.718 | EtBr fluorescence (EtBr 1 µg/ml, cycle 16): 4.905 | EtBr fluorescence (EtBr 1 µg/ml, cycle 17): 4.848 | EtBr fluorescence (EtBr 1 µg/ml, cycle 18): 4.742 | EtBr fluorescence (EtBr 1 µg/ml, cycle 19): 4.921 | EtBr fluorescence (EtBr 1 µg/ml, cycle 20): 4.874 | EtBr fluorescence (EtBr 1 µg/ml, cycle 21): 4.9036 | EtBr fluorescence (EtBr 1 µg/ml, cycle 22): 4.896 | EtBr fluorescence (EtBr 1 µg/ml, cycle 23): 4.921 | EtBr fluorescence (EtBr 1 µg/ml, cycle 24): 4.951 | EtBr fluorescence (EtBr 1 µg/ml, cycle 25): 5.054 | EtBr fluorescence (EtBr 1 µg/ml, cycle 26): 4.968 | EtBr fluorescence (EtBr 1 µg/ml, cycle 27): 4.962 | EtBr fluorescence (EtBr 1 µg/ml, cycle 28): 5.012 | EtBr fluorescence (EtBr 1 µg/ml, cycle 29): 4.975 | EtBr fluorescence (EtBr 1 µg/ml, cycle 30): 5.133 | EtBr fluorescence (EtBr 2 µg/ml, cycle 1): 8.337 | EtBr fluorescence (EtBr 2 µg/ml, cycle 2): 8.495 | EtBr fluorescence (EtBr 2 µg/ml, cycle 3): 8.83 | EtBr fluorescence (EtBr 2 µg/ml, cycle 4): 8.842 | EtBr fluorescence (EtBr 2 µg/ml, cycle 5): 8.984 | EtBr fluorescence (EtBr 2 µg/ml, cycle 6): 8.849 | EtBr fluorescence (EtBr 2 µg/ml, cycle 7): 8.931 | EtBr fluorescence (EtBr 2 µg/ml, cycle 8): 8.985 | EtBr fluorescence (EtBr 2 µg/ml, cycle 9): 9.166 | EtBr fluorescence (EtBr 2 µg/ml, cycle 10): 9.117 | EtBr fluorescence (EtBr 2 µg/ml, cycle 11): 9.27 | EtBr fluorescence (EtBr 2 µg/ml, cycle 12): 9.263 | EtBr fluorescence (EtBr 2 µg/ml, cycle 13): 9.311 | EtBr fluorescence (EtBr 2 µg/ml, cycle 14): 9.331 | EtBr fluorescence (EtBr 2 µg/ml, cycle 15): 9.332
